{
  "source": "paper PMC2674521",
  "about": "(Journal of pharmaceutical sciences, 2009)",
  "origin": "cited, not measured here",
  "key": {"HSA": {"system": "HSA", "conditions": "reference not given; cited from earlier work"}, "[1]": {"conditions": "cited from earlier work"}},
  "data": [
    {"smiles": "NS(=O)(=O)c1cc(C(=O)O)c(NCc2ccco2)cc1Cl", "note": "[Furosemide]", "values": [
      {"measurement": "affinity for site IIA of HSA (Ka)", "setting": "HSA", "value": 26000, "unit": "M⁻¹"},
      {"measurement": "protein-bound in humans", "setting": "[1]", "value": "> 98", "unit": "%"}
    ]}
  ]
}
